Measured values published in PubChem BioAssay AID540256 (National Center for Advancing Translational Sciences (NCATS), 2011).
The campaign covered roughly 300,000 compounds. About 3,700 (1.2%) were called active. This list was built around the results that the source calls inconclusive (neither active nor inactive); the mix of calls is not that of the screen. The call rests on the fitted dose curve; tested in HEK293 cells. A potency beside an inconclusive call is a rough fit, not a confirmed value.
Potency means the concentration at half of the fitted maximal effect.

Assay: qHTS for Inhibitors of binding or entry into cells for Lassa Virus; further: nearly all actives have a fitted effect of over 50% in size
Settings: Lassa virus pseudotype entry inhibition, cell reporter; series mostly up to 37.9 µM
For COc1ccc(/C=N/Nc2cc(C)nc3ccccc23)cc1, the Potency was inconclusive: 6.31 µM [inhibitor, partial curve, poor fit].
For CCCn1c(SCC(=O)c2cc(C)n(-c3ccc4c(c3)OCO4)c2C)n[nH]c1=O, the Potency was inconclusive: 22.4 µM [inhibitor, single point].
For Cc1cccc(OC(=O)c2cncc(Br)c2)c1, the Potency was “inactive”.
For COc1ccc([N+](=O)[O-])cc1NCc1cccc([N+](=O)[O-])c1, the Potency was inconclusive: 15.8 µM [inhibitor, single point].
With O=C(CN1CCN(c2ccc(Cl)cc2)CC1)NCc1ccccc1 the Potency was active: 6.31 µM.
With CC(=O)C1C(=O)c2c(cccc2[N+](=O)[O-])C1=Nc1ccc(S(N)(=O)=O)cc1 (stereo not given) the Potency was “inactive”.
With CN(C)/C=N/c1sc2c(c1C#N)CCCC2 the Potency was inconclusive: 35.5 µM [inhibitor, single point].
In the case of O=C(CCS(=O)(=O)c1cc(Br)cc2c1N(C(=O)C1CC1)CC2)Nc1ccc(Br)cc1F, the Potency is reported as inconclusive: 7.94 µM [activator, partial curve].
In the case of CCOC(=O)C1=C(COC(=O)COc2ccc(C(=O)CC)cc2)NC(=O)NC1C (stereo not given), the Potency is reported as “inactive”.
For COc1cccc(Oc2ccc(S(=O)(=O)N3CCCC3)cc2[N+](=O)[O-])c1, the Potency was inconclusive: 10 µM [inhibitor, partial curve, poor fit].
For Cc1cccn2cc(CCNS(=O)(=O)c3cccs3)nc12, the Potency was inconclusive: 0.501 µM [activator, full curve, poor fit].
In the case of CCC(C)n1c(SCC(=O)NC2CCS(=O)(=O)C2)nc2ccccc2c1=O (stereo not given), the Potency is reported as “inactive”.
For Cc1cc(F)ccc1S(=O)(=O)N1CCCOC1CNC(=O)C(=O)NCc1cccnc1 (stereo not given), the Potency was “inactive”.
In the case of Cc1ccc(NC(=O)C(C)NC(=O)OCc2ccccc2)cc1C (stereo not given), the Potency is reported as “inactive”.
For O=C(NCCc1ccc(Cl)cc1)C1CCC(=O)N1Cc1ccccc1Cl (stereo not given), the Potency was “inactive”.
In the case of C=C(C(=O)c1ccccc1)C(C)CC(=O)c1ccccc1 (stereo not given), the Potency is reported as inconclusive: 35.5 µM [inhibitor, single point].
With COCOc1cc(OC)ccc1C(=O)C=Cc1ccc([N+](=O)[O-])cc1 the Potency was inconclusive: 0.0027 µM [inhibitor, full curve, poor fit].
For CCn1c(=O)n(CC)c2cc(N3CCCCC3)c(NC(=O)Nc3ccccc3Cl)cc21, the Potency was inconclusive: 1.58 µM [inhibitor, full curve, poor fit].
For Cc1[nH]n(-c2ccccc2)c(=O)c1C(c1ccc(C(=O)O)cc1)c1c(C)[nH]n(-c2ccccc2)c1=O, the Potency was inconclusive: 0.0046 µM [inhibitor, full curve, poor fit].
For COCCN(C(=O)Cc1cccs1)C(C(=O)NC1CCCC1)c1cc(OC)c(OC)c(OC)c1 (stereo not given), the Potency was “inactive”.
With C=CCn1c(SCC(=O)Nc2nccs2)nnc1-c1cc2cccc(OC)c2o1 the Potency was inconclusive: 9.2 µM [inhibitor, partial curve].
With Cc1cccc(NS(=O)(=O)c2ccc3oc(=O)c4ncn(C)c4c3c2)c1C the Potency was inconclusive: 35.5 µM [inhibitor, single point].
For CN1CCN(CC(=O)Nc2ccc(S(=O)(=O)N(C)C)cc2)CC1, the Potency was inconclusive: 35.5 µM [activator, single point].
In the case of COc1cccc(Oc2nc3c(c(=O)n(Cc4ccccc4F)c(=O)n3C)n2C)c1, the Potency is reported as “inactive”.
With COc1cc2[nH]c(=O)n(CCCCCC(=O)N3CCN(c4cccc(C(F)(F)F)c4)CC3)c(=O)c2cc1OC the Potency was inconclusive: 35.5 µM [inhibitor, single point].
In the case of NC(=O)N/N=C/c1cn(-c2ccccc2)nc1-c1ccccc1, the Potency is reported as “inactive”.
For Cc1ccc(-c2n[nH]c(=S)n2/N=C/c2ccc(C)s2)cc1, the Potency was active: 1.26 µM.
For O=C(N/N=C/c1ccc([N+](=O)[O-])o1)c1ccncc1, the Potency was inconclusive: 25.1 µM [inhibitor, single point].
With CCOc1cc(/C=N/N=C2/NC(=O)C(CC(=O)O)S2)ccc1OCc1ccc(Cl)cc1Cl (stereo not given) the Potency was inconclusive: 25.1 µM [inhibitor, partial curve, poor fit].
In the case of CCc1ccc2c(c1)NC(c1cccs1)=NC(c1ccc(F)cc1)=N2, the Potency is reported as inconclusive: 12.6 µM [activator, single point].
In the case of CCN1C(=O)/C(=C2/C=CC=CN2C)SC1=S, the Potency is reported as inconclusive: 1.16 µM [inhibitor, single point].
With COc1cccc(CC(NC(C)=O)C(=O)NC2CCN(C(=O)C3CCCCC3)CC2)c1OC (stereo not given) the Potency was inconclusive: 5.62 µM [inhibitor, single point].
For CC(=O)N(Cc1cccnc1)c1nc2c(C)c(C)ccc2s1, the Potency was inconclusive: 35.5 µM [inhibitor, single point].
With CCOc1ccc(CCNC(=O)c2cc3c(=O)[nH]c4ccc(C)cc4c3s2)cc1OCC the Potency was “inactive”.
For CCOc1ccc(NC(=O)Nc2cc(C)on2)cc1, the Potency was inconclusive: 6.51 µM [inhibitor, single point].
In the case of O=C(CCCN1C(=O)C(c2ccccc2)Oc2cccnc21)Nc1ccc(Br)cc1F (stereo not given), the Potency is reported as “inactive”.
With O=C(CC1CCCCC1)Nc1ncn[nH]1 the Potency was “inactive”.
In the case of CC(C)NCC(O)Cn1c2c(c3ccccc31)CCc1c-2cnn1-c1ccccc1 (stereo not given), the Potency is reported as active: 7.08 µM.
With CCCCNC(=O)CSc1nc2ccccc2c(=O)n1Cc1ccc2c(c1)OCO2 the Potency was inconclusive: 2.91 µM [inhibitor, partial curve, poor fit].
In the case of CCOc1ccc(Nc2nc(N)c3ccccc3n2)cc1, the Potency is reported as inconclusive: 1.12 µM [inhibitor, full curve, poor fit].
For CCCS(=O)(=O)c1c(Nc2ccccc2C)sc(C(=O)c2ccccc2)c1N, the Potency was inconclusive: 10 µM [inhibitor, partial curve, poor fit].
For O=c1c(Cl)c(Cl)cnn1Cc1ccc(F)cc1, the Potency was active: 20.6 µM.
In the case of Cc1ccc(NS(=O)(=O)c2cc(Br)cc3c2N(C(=O)C2CC2)CC3)cc1C, the Potency is reported as inconclusive: 10 µM [inhibitor, partial curve, poor fit].
With CCc1c(C)nc2cc(-c3cc(OC)cc(OC)c3)nn2c1N1CCCC1 the Potency was “inactive”.
With CCc1ccccc1N(C)C(=O)Cn1cnc2sc(C)c(S(=O)(=O)N3CCN(c4ncccn4)CC3)c2c1=O the Potency was “inactive”.
